Data published in PMC10816986, “The Role of Key Amino Acids of the Human Fe(II)/2OG-Dependent Dioxygenase ALKBH3 in Structural Dynamics and Repair Activity toward Methylated DNA” (International Journal of Molecular Sciences, 2024).

B1: Y143A ALKBH3: ALKBH3 mutant, Tyr143 replaced with Ala (protein, UniProt Q96Q83 1-286, looked up, variant Y143A)
Alpha-ketoglutarate-dependent …: MEEKRRRARVQGAWAAPVKSQAIAQPATTAKSHLHQKPGQTWKNKEHHLSDREFVFKEPQQVVRRAPEPRVIDREGVYEISLSPTGVSRVCLYPGFVDVKEADWILEQLCQDVPWKQRTGIREDITYQQPRLTAWYGELPYTASRITMEPNPHWHPVLRTLKNRIEENTGHTFNSLLCNLYRNEKDSVDWHSDDEPSLGRCPIIASLSFGATRTFEMRKKPPPEENGDYTYVERVKIPLDHGTLLIMEGATQADWQHRVPKEYHSREPRVNLTFRTVYPDPRGAPW
B2: L177A ALKBH3: ALKBH3 mutant, Leu177 replaced with Ala (protein, UniProt Q96Q83 1-286, looked up, variant L177A)
Alpha-ketoglutarate-dependent …: MEEKRRRARVQGAWAAPVKSQAIAQPATTAKSHLHQKPGQTWKNKEHHLSDREFVFKEPQQVVRRAPEPRVIDREGVYEISLSPTGVSRVCLYPGFVDVKEADWILEQLCQDVPWKQRTGIREDITYQQPRLTAWYGELPYTYSRITMEPNPHWHPVLRTLKNRIEENTGHTFNSLACNLYRNEKDSVDWHSDDEPSLGRCPIIASLSFGATRTFEMRKKPPPEENGDYTYVERVKIPLDHGTLLIMEGATQADWQHRVPKEYHSREPRVNLTFRTVYPDPRGAPW
B3: H191A ALKBH3: ALKBH3 mutant, His191 replaced with Ala (protein, UniProt Q96Q83 1-286, looked up, variant H191A)
Alpha-ketoglutarate-dependent …: MEEKRRRARVQGAWAAPVKSQAIAQPATTAKSHLHQKPGQTWKNKEHHLSDREFVFKEPQQVVRRAPEPRVIDREGVYEISLSPTGVSRVCLYPGFVDVKEADWILEQLCQDVPWKQRTGIREDITYQQPRLTAWYGELPYTYSRITMEPNPHWHPVLRTLKNRIEENTGHTFNSLLCNLYRNEKDSVDWASDDEPSLGRCPIIASLSFGATRTFEMRKKPPPEENGDYTYVERVKIPLDHGTLLIMEGATQADWQHRVPKEYHSREPRVNLTFRTVYPDPRGAPW
B4: wt ALKBH3: wild-type human Fe(II)/2OG-dependent dioxygenase ALKBH3 with N-terminal His-tag, expressed in E. coli (protein, UniProt Q96Q83 1-286, looked up)
Alpha-ketoglutarate-dependent …: MEEKRRRARVQGAWAAPVKSQAIAQPATTAKSHLHQKPGQTWKNKEHHLSDREFVFKEPQQVVRRAPEPRVIDREGVYEISLSPTGVSRVCLYPGFVDVKEADWILEQLCQDVPWKQRTGIREDITYQQPRLTAWYGELPYTYSRITMEPNPHWHPVLRTLKNRIEENTGHTFNSLLCNLYRNEKDSVDWHSDDEPSLGRCPIIASLSFGATRTFEMRKKPPPEENGDYTYVERVKIPLDHGTLLIMEGATQADWQHRVPKEYHSREPRVNLTFRTVYPDPRGAPW
modifications: N-terminal His-tag
notes: wild-type human Fe(II)/2OG-dependent dioxygenase ALKBH3 with N-terminal His-tag, expressed in E. coli
B5: Y143F ALKBH3: ALKBH3 mutant, Tyr143 replaced with Phe (protein, UniProt Q96Q83 1-286, looked up, variant Y143F)
Alpha-ketoglutarate-dependent …: MEEKRRRARVQGAWAAPVKSQAIAQPATTAKSHLHQKPGQTWKNKEHHLSDREFVFKEPQQVVRRAPEPRVIDREGVYEISLSPTGVSRVCLYPGFVDVKEADWILEQLCQDVPWKQRTGIREDITYQQPRLTAWYGELPYTFSRITMEPNPHWHPVLRTLKNRIEENTGHTFNSLLCNLYRNEKDSVDWHSDDEPSLGRCPIIASLSFGATRTFEMRKKPPPEENGDYTYVERVKIPLDHGTLLIMEGATQADWQHRVPKEYHSREPRVNLTFRTVYPDPRGAPW

Columns and labels:
[1] = tested on: m3C_FRET substrate (m3C-containing DNA); test: Stopped-flow FRET pre-steady-state kinetics of m3C DNA demethylation; format: biochemical; conditions: 1 ms–1000 s after mixing 1.5 µM m3C_FRET with 1.5 µM protein
Excerpt: In previous research, we employed a stopped-flow (SF) method to detect conformational changes in the dioxygenases AlkB and ALKBH2, as well as their substrates, throughout the catalytic cycle. The SF technique provides excellent opportunities for studying the conformational dynamics of protein–nucleic acid complexes under pre-steady-state conditions within the millisecond time range. Conformational transitions are typically detected by measuring the fluorescent signal from the tryptophan residues of the enzyme or fluorescent labels incorporated into the DNA substrate sequence. […] It should be noted that another common approach to detecting conformational dynamics based on measurement of the intrinsic Trp fluorescence of ALKBH3 was unsuccessful due to a low signal-to-noise ratio. The time-dependent FRET signal profiles following rapid (1 ms) mixing of equimolar amounts of enzyme and the m3C_FRET substrate in the presence of Fe(II) and 2OG ligands were obtained under near single-turnover conditions (Figure 3). […] Subsequently, from 10 s to 250 s, a significant quenching of fluorescence occurs, followed by stabilization at a constant level. […]
For wt and Y143F ALKBH3, a series of SF traces were recorded across a range of m3C substrate concentrations from 0.5 to 4.0 µM (Figure 4). […]
Table 1 summarizes the values of the rate constants describing the forward and reverse reactions of the mechanism, as well as the equilibrium dissociation constant of the enzyme–product complex. […] To assess the overall affinity of ALKBH3’s active site for damaged DNA, the equilibrium constant Ka = K1 + K1 × K2 + K1 × K2 × K3, where Ki = ki/k−i, was determined. […]
Figure 3 Time courses of the FRET signal generated by the FAM/BHQ1 pair under interactions of wt, Y143F, Y143A, L177A, and H191A ALKBH3 with m3C-containing DNA. The fluorescence traces represent changes in the FRET signal after rapid mixing of 1.5 µM m3C_FRET substrate with 1.5 µM protein in the presence of 40 µM Fe(II) and 1 mM 2OG. […]

[2] = Far-UV CD spectroscopy, secondary structure content (BeStSel); format: physicochemical; conditions: for Antiparallel β-Strands Left-Twisted / Antiparallel β-Strands Relaxed / Antiparallel β-Strands Right-Twisted / Other (poorly ordered structures) / Parallel β-Strands / Turns / α-Helixes Distorted / α-Helixes Regular: apo protein 0.2 mg/mL, 11 °C, BeStSel
Description: To assess the effect of key amino acid substitution on the ALKBH3’s secondary structure content circular CD spectra of each protein variant in the apo state were recorded in accordance with experimental conditions optimized in our previous study.
The secondary structure content was determined by processing experimental spectra using the […] (BeStSel, Budapest, Hungary) and CDSSTR (DichroWeb, London, UK) algorithms. […] A detailed description of the parameter optimization process for each algorithm is provided in our recent work. The BeStSel package was selected for further analysis as it provides more information regarding the structural organization of the protein. As follows from data summarized in Table 3, antiparallel β-strands predominate in the structure of the wild-type ALKBH3 (37.6%), with a considerable portion existing in right-twisted and relaxed conformations. The protein sequence also contains a significant number of loop motifs (12.6%) and poorly ordered structures (~44.7%), which may constitute the N-terminal domain. Only 5.2% of the amino acid sequence is composed of α-helices. Utilizing the protein architecture and topology prediction feature available in BeStSel, it was established that the obtained CD spectrum belongs (with a probability of 96%) to the class of β-proteins with a sandwich or β-barrel architecture. Such a distribution corresponds to the structure of ALKBH3 determined by X-ray crystallography for a truncated form of the enzyme lacking 69 amino acids from the N-terminus (PDB 2IUW). Specifically, the β7-β14 strands form two antiparallel sheets of a central “jellyroll” fold, which constitutes the catalytically active DSBH domain (Figure 1). Thus, the CD method we selected enabled us to determine the composition of the secondary structure of ALKBH3 with a high degree of precision.
Far-UV CD spectra from 185 to 280 nm were recorded using a J600 spectrometer (Jasco, Tokyo, Japan) in a 0.1 cm path lengths quartz cuvette (Starna Cells, CA, USA). In all cases, the protein sample (~50 nmol) was dialyzed two times against the CD buffer containing 10 mM of Potassium Phosphate (pH 7.8) and 50 mM of (NH4)2SO4. The protein concentration was verified by absorption at 280 nm and adjusted to 0.2 mg/mL. CD spectra for the determination of secondary structures were collected three times (each spectrum was an average of 10 repeats) at a speed of 50 nm/min and a 1 nm step size (spectral bandwight 2 nm). To increase stability, the protein samples were cooled 11 °C during recording. Data were corrected for a baseline by subtraction of the buffer spectrum and expressed as mean residue ellipticity [θ] (deg.·cm^2·dmol^−1). To estimate the secondary structures, each spectrum between […] and 250 nm was analyzed by both the DichroWeb and BeStSel online programs using the CDSSTR method.
Figure 5 Far-UV CD spectra of wt (blue), Y143F (yellow), Y143A (green), L177A (red), and H191A (purple) ALKBH3 collected from 0.2 mg/mL protein at 11 °C in the absence of ligands. Each spectrum was measured three times, corrected for background, averaged, and expressed as mean residue ellipticity θ (deg·cm^2·dmol^−1).

Row | Molecule | changes in the FRET signal [1] | increase in loop motifs over wt ALKBH3 [2] [fold] | Antiparallel β-Strands Left-Twisted [2] [%] | Antiparallel β-Strands Relaxed [2] [%] | Antiparallel β-Strands Right-Twisted [2] [%] | Other (poorly ordered structures) [2] [%] | Parallel β-Strands [2] [%] | Turns [2] [%] | α-Helixes Distorted [2] [%] | α-Helixes Regular [2] [%] | decrease in relaxed antiparallel β-strands vs wt [2] [fold] | increase in the turn content vs wt [2] [%] | Other (poorly ordered structures) ([2]; listed as WT) [%] | Other (poorly ordered structures) ([2]; listed as wild-type ALKBH3) | antiparallel β-strands, total ([2]; sum of Table 3 components) [%]
1 | B1 | No reliable changes in the FRET signal were detected | 1.5 | 0 | 1.4 | 15.2 | 49.2 | 0 | 19.2 | 5.9 | 9.1 |  |  |  |  | 
2 | B2 | No reliable changes in the FRET signal were detected |  | 0 | 5.4 | 15.8 | 48.3 | 0 | 16.5 | 6.0 | 8.1 |  |  |  |  | 
3 | B3 | No reliable changes in the FRET signal were detected |  | 0 | 1.6 | 14.5 | 49.8 | 1.1 | 16.6 | 7.9 | 8.4 | 9.5 | 4 |  |  | 
4 | B4 |  |  | 3.4 | 15.2 | 19.0 |  | 0 | 12.6 | 1.7 | 3.5 |  |  | 44.7 | ~ 44.7% | 37.6
5 | B5 |  |  | 1.9 | 8.8 | 20.3 | 46.1 | 0 | 11.8 | 2.9 | 8.2 |  |  |  |  | 

Some compounds share one wording; it may come from a single statement.
